These are yes or no findings as the source states them, for the method shown. Binding seen in cells or lysates may run through a third protein. Some results given as binding are weak or reduced against the parent protein; the word gives no strength.
Target: T1, CTCF (UniProt P49711)
T1 sequence: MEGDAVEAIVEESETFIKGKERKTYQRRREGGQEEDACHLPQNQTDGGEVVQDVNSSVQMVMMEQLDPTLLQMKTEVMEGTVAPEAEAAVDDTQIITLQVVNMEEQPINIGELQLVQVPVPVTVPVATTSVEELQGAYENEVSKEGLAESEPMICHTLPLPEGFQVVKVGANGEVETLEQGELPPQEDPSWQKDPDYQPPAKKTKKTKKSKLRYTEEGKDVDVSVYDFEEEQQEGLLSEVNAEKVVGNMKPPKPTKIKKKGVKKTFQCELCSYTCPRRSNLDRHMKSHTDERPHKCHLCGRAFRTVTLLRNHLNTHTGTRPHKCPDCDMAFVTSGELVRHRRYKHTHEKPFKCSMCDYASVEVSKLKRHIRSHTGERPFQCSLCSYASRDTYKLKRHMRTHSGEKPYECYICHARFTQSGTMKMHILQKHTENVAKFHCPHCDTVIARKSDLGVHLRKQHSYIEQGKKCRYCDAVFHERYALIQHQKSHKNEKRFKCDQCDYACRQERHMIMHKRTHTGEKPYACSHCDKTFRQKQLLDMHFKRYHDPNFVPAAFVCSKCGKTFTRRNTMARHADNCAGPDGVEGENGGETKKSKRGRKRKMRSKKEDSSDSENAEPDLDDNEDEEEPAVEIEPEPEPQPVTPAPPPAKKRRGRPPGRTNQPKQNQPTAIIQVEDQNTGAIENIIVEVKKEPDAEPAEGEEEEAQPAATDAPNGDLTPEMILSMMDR
Experiment: co-IP; immunoprecipitation studies (Supplementary Fig. 7f); cells, bait and conditions not told in the text shown

The chains behind the UniProt entries cited, without tags or fusion partners.
UniProt Q9H8M2: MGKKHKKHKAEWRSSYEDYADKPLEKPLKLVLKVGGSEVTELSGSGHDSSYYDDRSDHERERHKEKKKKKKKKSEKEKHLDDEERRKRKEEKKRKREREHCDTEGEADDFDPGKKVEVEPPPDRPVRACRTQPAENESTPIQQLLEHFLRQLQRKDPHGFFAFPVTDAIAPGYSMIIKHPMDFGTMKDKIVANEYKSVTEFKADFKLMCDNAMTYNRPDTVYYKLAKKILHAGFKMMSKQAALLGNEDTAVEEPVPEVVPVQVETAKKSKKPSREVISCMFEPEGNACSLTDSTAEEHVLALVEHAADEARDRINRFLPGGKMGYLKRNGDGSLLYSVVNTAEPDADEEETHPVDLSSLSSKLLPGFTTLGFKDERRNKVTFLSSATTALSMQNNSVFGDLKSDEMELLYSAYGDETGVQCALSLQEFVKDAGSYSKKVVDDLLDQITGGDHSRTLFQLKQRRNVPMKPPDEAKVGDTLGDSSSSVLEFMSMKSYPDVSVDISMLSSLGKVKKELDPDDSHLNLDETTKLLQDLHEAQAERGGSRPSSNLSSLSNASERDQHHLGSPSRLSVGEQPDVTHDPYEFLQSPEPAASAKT

- binding: binds
Substance: BRD9 (from UniProt Q9H8M2 1-597)
